# According to paper PMC1182371:
# Amino acid sequences for entries named in this document (tags omitted). Residues count along the entry.
# UniProt Q9UIH9, 294-416: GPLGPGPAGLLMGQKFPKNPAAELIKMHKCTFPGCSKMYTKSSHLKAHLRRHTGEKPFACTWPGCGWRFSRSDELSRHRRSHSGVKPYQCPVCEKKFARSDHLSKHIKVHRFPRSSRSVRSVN
# Construct, isoform or probe ends are uncertain for at least one entry. Weaker means in comparison with the reference protein, sequence or condition of that experiment. At least one verdict was read from the data and is not stated in words by the source.
# Target: KLF15-ZF-GST (human) (UniProt Q9UIH9)
# Assay: competition with a labelled probe
# Conditions: as wild type, vs bRho29 or hRho29 probe; EMSA: 4 mM HEPES, 5 mM EGTA, 100 mM KCl, 0.25 mM ZnCl2, 0.02% NP40, 0.1 M DTT, 4% glycerol, 90-120 min on ice, pH not stated; recombinant protein; residues 294-416; protein details: N-terminal GST; label: unlabeled
row,Sequence,binding result
1,GGCATAACGCCCCCAATCTCCGAGGTGC (double strand) [bRho29 D1],binds
2,TTAATAACGCCCCCACGATCCGAGGTGC (double strand) [bRho29 D16],binds
3,TTAATAACGCCCCCAATCGAAGAGGTGC (double strand) [bRho29 D19],binds
4,TTAATAACGCCCCCAATCTCCGAGTGTC (double strand) [bRho29 D25],binds
5,TTAATAACGCCCCCAATCTCCTGTGTGC (double strand) [bRho29 D22],binds
6,TTACGCACGCCCCCAATCTCCGAGGTGC (double strand) [bRho29 D4],binds

# Same assay, conditions: vs bRho29 or hRho29 probe; EMSA: 4 mM HEPES, 5 mM EGTA, 100 mM KCl, 0.25 mM ZnCl2, 0.02% NP40, 0.1 M DTT, 4% glycerol, 90-120 min on ice, pH not stated; recombinant protein; residues 294-416; protein details: N-terminal GST; label: unlabeled
row,Sequence,binding result
1,TTAATAAAGCCCACAATCTCCGAGGTGC (double strand) [bRho29 D8_13],binds more weakly
2,TTAATACATCCCCCAATCTCCGAGGTGC (double strand) [bRho29 D7],binds more weakly
3,TTAATACATCCCAACATCTCCGAGGTGC (double strand) [bRho29 D7+D13],binds more weakly
4,TTAATAACGCCCAACATCTCCGAGGTGC (double strand) [bRho29 D13],binds more weakly
5,TTAATAACGCACCCAATCTCCGAGTGTC (double strand) [bRho29 D11],binds more weakly
